# Primary screen of a compound library

Data taken from ChEMBL document CHEMBL3988442, “University of Dundee, Small-Polar-MMV Screening Library” (2021).

The filed quantity is “Percent Effect” (%). The controls that fix the scale are not given in the record; negative values are as filed. This is an unselected part of the compounds tested. A dash means the value is not listed here; it may have been measured.

Mtb growth Cornell: 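Whole-cell assay for inhibitors of Mycobacterium tuberculosis growth, labelled Cornell in the record; the read-out is not stated. The concentration is filed as 10 mM, unlikely as a test dose, so the dose is not known. Higher means stronger inhibition (inferred from two other growth screens of the library). About 53,000 compounds were tested under these conditions; 1.7% (about 900) showed 50% or more at least once.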
Mtb heat-shock: 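Assay on Mycobacterium tuberculosis, filed only as a heat shock assay from Cornell; the read-out is not stated. The concentration is filed as 10 mM, unlikely as a test dose, so the dose is not known. The record gives no direction; compounds that gave an IC50 in retests scored well above the rest, so higher reads as stronger inhibition. Size under these conditions: about 69,000 compounds, about 930 of them at 50% or above in at least one test.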

structure	Mtb growth Cornell	Mtb heat-shock
O=C1CCC(=O)N1c1nn(Cc2c(F)cccc2Cl)cc1Cl	-25.94	-10.25
Cn1nnc2c1CCN(C(=O)CC1CC1)C2COCCN1CCCC1 (centres unmarked)	-26.61	-36.8
O=C(NCc1cc(-c2ccccc2)no1)NC1CCCCNC1=O (centres unmarked)	18.77	-29.48
Cc1cccnc1NC(=O)CSc1ccc2c(c1)OCCO2	9.843	-1.807
CCC1CN(C(=O)c2cccnc2O)CCC(=O)N1Cc1ccccc1 (centres unmarked)	4.16	-9.861
O=C(N[C@]12CC1CN(C(=O)c1ccco1)C2)c1ccco1 (some centres unmarked)	-	2.334
CCNC(=O)NC(=O)CNc1cc(C(=O)OC)cc(C(F)(F)F)c1	33.83	12.96
Cc1cc(=O)n2ncnc2n1CC(O)c1cc(F)ccc1F (centres unmarked)	-70.76	-24.87
COC(=O)c1ccc(N2CCN(C(=O)c3cnccn3)C(C)C2)cc1 (centres unmarked)	-	-23.62
Fc1ccc(CC2CCN(Cc3nccs3)CC2)cc1	47.54	15.33
Cc1cc(C)n(CC2CCCN2C(=O)c2ccc3[nH]c(=O)[nH]c3c2)n1 (centres unmarked)	14.38	13.49
CN1CCCC2(CCN(Cc3cncn3C3CCCCC3)C2)C1=O (centres unmarked)	16.99	13.88
Cc1ccccc1C(CNc1ncnc2c1CCNCC2)N(C)C (centres unmarked)	-8.936	-18.47
Cc1nc(CN2CCCC3(CCN(c4cnn(C)c4)C3=O)C2)cs1.O=C(O)C(F)(F)F (centres unmarked)	27.97	-1.517
CC(=O)N1CCCN(C(=O)NCCNc2cnccn2)CC1	8.364	2.411
CNS(=O)(=O)c1ccc(CNC(=O)c2cccc(C)n2)cc1	-30.63	-22.57
O=C(c1csc(-c2ncccn2)n1)N1CCCC1Cn1cccn1 (centres unmarked)	-18	-30.49
O=C(O)c1cnc(-c2cccc3c2CCNC3)c(Cl)c1	-	-21.98
CC(NCc1ccc(C(C)(C)C)cc1)c1ccc(S(C)(=O)=O)cc1 (centres unmarked)	-	-1.572
O=C(COCc1ccco1)Nc1cc(C(F)(F)F)c[nH]c1=O	-3.429	-9.619
Cc1ccc(N2CCN(C(=O)COc3ccccc3)CC2)nn1	-0.8685	10.28
CSc1ncc(CNCC2(N3CCCCC3)Cc3ccccc3C2)cn1	19.25	-1.547
[H][C@@]12C[C@@H](OCC3CC3)CN1CCN(C(=O)c1cnccn1)C2	-43.91	-24.42
Cc1cccc(C(C(=O)NCc2cc(C)[nH]n2)N(C)C)c1 (centres unmarked)	-4.3	-0.2006
O=S(=O)(Cc1ccc(F)cc1)NCc1ccco1	17.35	10.76
N#Cc1ccccc1CN1CCCC(c2nccn2CC2CC2)C1 (centres unmarked)	-13.96	-28.36
Clc1ccccc1CNC(Cn1cncn1)c1ccccc1 (centres unmarked)	6.389	-2.86
CCOC(=O)CNC(=O)c1cccnc1Oc1ccc(Cl)cc1	16.1	-21.74
COc1cccc(N2CC3(CCN(c4cc(OC)ncn4)C3)CC2=O)c1 (centres unmarked)	14.26	-5.039
Cc1nc(CNC(=O)NC(C)c2ccc3c(c2)OCCCO3)cs1 (centres unmarked)	-7.11	-20.92
Cc1ccc(CN(C)C(=O)c2cnsn2)cc1	-4.603	22.24
CS(=O)(=O)CCN1CCN(c2ccc(Cl)cn2)CC1	-22.76	-13.16
CN(C)CC(=O)N1CC2(CCN(C(=O)Nc3ccccc3)C2)C1.O=C(O)C(F)(F)F	-36.23	-19.82
Cc1cnccc1NCCNC(=O)C1CCCN(Cc2ccco2)C1 (centres unmarked)	-13.33	-60.66
CSC(C)(C)CNC(=O)NC1CCN(CC2CC2)C1 (centres unmarked)	-31.8	-23.03
CNC(=O)C(C)(C)NC(=O)c1cc(COc2ccccc2OC)[nH]n1	-27	4.499
Cc1cc2ccccc2n1CCC(=O)N1CCCCC1CCO (centres unmarked)	105.9	23.59
Cc1cnn(CCNCc2ccccc2F)c1	-	-15.92
O=C(NCCOCC1CC1)Nc1ccc(F)cc1	16.8	16.63
CC(C)c1cc(C(=O)NC2CCN(CC(N)=O)CC2)nn1C(C)(C)C	-0.7327	17.37
Cc1cnn(C2CCCN(C(=O)c3cc(-c4ccco4)[nH]n3)C2)c1 (centres unmarked)	-	-13.25
O=C(Nc1cc(F)ccc1OCC1CCCO1)N1CCSCC1 (centres unmarked)	-	1.554

The last 2 entries again:

* Cc1cnn(C2CCCN(C(=O)c3cc(-c4ccco4)[nH]n3)C2)c1 (centres unmarked) : Mtb heat-shock: -13.25%
* O=C(Nc1cc(F)ccc1OCC1CCCO1)N1CCSCC1 (centres unmarked) : Mtb heat-shock: 1.554%